System: metastatic colorectal cancer (mCRC)
Test: Phase I/II trial of pentamidine with chemotherapy in previously treated mCRC (Example 5)
Type: in vivo, human
Details: initial 17 pts; range in brackets

Structure (SMILES): N=C(N)c1ccc(OCCCCCOc2ccc(C(=N)N)cc2)cc1 [Pentamidine]
- Median duration of treatment: 15.1 wk (0.3-58.4)

From patent US20120128667A1 (ONCOZYME PHARMA INC., priority 2009, published 2012)
